From US20190270778A1 (priority 2016, published 2019)
Strings that start with PEPTIDE1 are HELM notation: dots part the residues, brackets hold end groups and non-standard residues.

Assay: general procedure: Fmoc solid-phase peptide synthesis; 2-chlorotrityl chloride (CTC) resin, ChemImpex, 1.0-1.7 meq/g; HATU (macrolactamisation and side-chain amino acid coupling)
Details: for cyclisation yield: cyclisation step; for isolated yield / crude mass / crude yield / isolated mass: whole synthesis

Row | Substance | cyclisation yield | isolated yield | crude yield | further results
1 | ((S)-1-(((3R,6S,9S,15S,19R,20aS)-6-((1H-indol-3-yl)methyl)-9-(3-guanidinopropyl)-19-hydroxy-3-(((1s,4S)-4-hydroxycyclohexyl)methyl)-1,4,7,10,16-pentaoxoicosahydropyrrolo[1,2-a][1,4,7,10,13]pentaazacyclooctadecin-15-yl)amino)-1-oxo-3-(3,5-dideuterophenyl)propan-2-yl)glycine |  |  |  | step yield (coupling step): 94% crude yield; step yield (late stage modification step): 100% crude yield
2 | PEPTIDE1{[CmNMePhe].[Orn].[Hyp].[D-Cha4OHcis].W.R}$PEPTIDE1,PEPTIDE1,2:R3-6:R2$$$V2.0 | crude yield 100% | 5.2% |  | crude mass (scale 0.3 mmol): 402 mg; crude yield (scale 0.3 mmol): crude yield 100%
3 | PEPTIDE1{[CmPhe].[Orn].P.[D-Cha4OHcis].[7AzaTrp].R}$PEPTIDE1,PEPTIDE1,2:R3-6:R2$$$V2.0 |  | 6.6% |  | crude mass (scale 0.2 mmol): 271 mg; crude yield (scale 0.2 mmol): crude yield 100%
4 | PEPTIDE1{[CmPhe].[Orn].[HypOCm].[D-Cha4OHcis].W.R}$PEPTIDE1,PEPTIDE1,2:R3-6:R2$$$V2.0 | 83% |  |  | step yield (late stage modification step): 35.8%; crude mass (scale 1.0 mmol): 775 mg; crude yield (scale 1.0 mmol): 79%
5 | PEPTIDE1{[CmPhe].[Orn].[Hyp].[D-Cha4OHcis].[7AzaTrp].R}$PEPTIDE1,PEPTIDE1,2:R3-6:R2$$$V2.0 |  | 4.8% |  | crude mass (scale 0.2 mmol): 286 mg; crude yield (scale 0.2 mmol): crude yield 100%
6 | PEPTIDE1{[CmPhe].[Orn].[Hyp].[D-Cha4OHcis].[Ala4MePz].R}$PEPTIDE1,PEPTIDE1,2:R3-6:R2$$$V2.0 | 48% |  | 80% | step yield (late stage modification step): 46%
7 | PEPTIDE1{[CmPhe].[Orn].[Hyp].[D-Cha4OHcis].[AlaIndazol3yl].R}$PEPTIDE1,PEPTIDE1,2:R3-6:R2$$$V2.0 |  | 10% |  | cyclisation yield (on linear hexapeptide (0.059 mmol)): 35%; isolated mass (scale 0.6 mmol): 100 mg
8 | PEPTIDE1{[CmPhe].[Orn].[Hyp].[D-Cha4OHcis].[Trp6Et].R}$PEPTIDE1,PEPTIDE1,2:R3-6:R2$$$V2.0 | 42% |  | crude yield 50% | step yield (late stage modification step): 19%
9 | PEPTIDE1{[CmPhe].[Orn].[Hyp].[D-Cha4OHcis].[Trp6OMe].R}$PEPTIDE1,PEPTIDE1,2:R3-6:R2$$$V2.0 |  | 2.3% |  | 
10 | PEPTIDE1{[CmPhe].[Orn].[Pro4R-NH2].[D-Cha4OHcis].W.R}$PEPTIDE1,PEPTIDE1,2:R3-6:R2$$$V2.0 |  | 6.6% | 100% | 
11 | PEPTIDE1{[CmPhe].[Orn].[Pro4R-NHAc].[D-Cha4OHcis].W.R}$PEPTIDE1,PEPTIDE1,2:R3-6:R2$$$V2.0 |  | 20% | 100% | 
12 | PEPTIDE1{[CmPhe].[Orn].[Pro4R-NHCm].[D-Cha4OHcis].W.R}$PEPTIDE1,PEPTIDE1,2:R3-6:R2$$$V2.0 |  | 19.4% |  | 
13 | PEPTIDE1{[CmPhe].[Orn].[Pro4S-NH2].[D-Cha4OHcis].W.R}$PEPTIDE1,PEPTIDE1,2:R3-6:R2$$$V2.0 | 100% |  |  | isolated mass (scale 3.0 mmol): 312 mg; isolated yield (scale 3.0 mmol): 10%
14 | PEPTIDE1{[CmPhe].[Orn].[Pro4S-NHAc].[D-Cha4OHcis].W.R}$PEPTIDE1,PEPTIDE1,2:R3-6:R2$$$V2.0 |  | 30% | 100% | 
15 | PEPTIDE1{[CmPhe].[Orn].[Pro4S-NHCm].[D-Cha4OHcis].W.R}$PEPTIDE1,PEPTIDE1,2:R3-6:R2$$$V2.0 |  | 5.7% |  | crude mass (scale 0.2 mmol): 297 mg; crude yield (scale 0.2 mmol): crude yield 100%
